PubChem BioAssay AID1508588, Peter MacCallum Cancer Centre, 2020
Assay: 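Genome-wide search for knock-downs that heighten vemurafenib action in melanoma cells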 (primary screen). Cell system: human WM266.4 melanoma cells (BRAF V600 mutant). Reagent: siRNA pool against human genes, 40 nM. Duration: 96 h from transfection to read-out. Conditions: vemurafenib 300 nM (about IC25), added 48 h after transfection, for 48 h; comparison arm got DMSO vehicle only. Read-out: 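Ratios to non-targeting siRNA for cell gain, counted as DAPI nuclei after minus before drug and averaged over two replicates, and for absorbance-read medium lactate per cell; both binned into fold-change classes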. Reading the numbers: cell gain with vemurafenib: higher = more cell gain than with non-targeting siRNA; lactate per cell with vemurafenib: higher = more lactate made per cell. Call rule: 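a knock-down counts as enhancing when its fold-change classes with vehicle and with vemurafenib, taken together, show a stronger drug effect on cell gain or lactate per cell; exact class pairs not stated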. Calls: active = enhances vemurafenib effect; inactive = no enhancement seen.
The deposit covers about 18,000 reagents; shown is an unselected part. Of all reagents, 790 (4.4%) were called active. 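Calls rest on a combination of fold-change classes in drug and vehicle arms, not all shown here.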 Unmarked entries are inactive. A reagent listed more than once was tested more than once; the source does not tell the runs apart.

target gene | PubChem SID | cell gain with vemurafenib | lactate per cell with vemurafenib
DEFB105B (defensin beta 105B) | SID135625588 | 0.21 | 1.55
CD53 (CD53 molecule) | SID152155785 | 0.75 | 0.79
AIMP2 | SID135622276 | 0.7 | 1.12
EXD2 (exonuclease 3'-5' domain containing 2) | SID152155099 | 0.84 | 1.09
GLYATL2 (glycine-N-acyltransferase like 2) | SID135621916 | 0.61 | 0.74
CD101 (CD101 molecule) | SID135623855 | 1.28 | 0.68
PRSS55 (serine protease 55) | SID135624652 | 1.03 | 0.76
NDUFAF1 (NADH:ubiquinone oxidoreductase complex assembly factor 1) | SID135624098 | 0.21 (active) | 0.68
DAZL (deleted in azoospermia like) | SID134315601 | 0.52 | 0.99
NBL1 (NBL1, DAN family BMP antagonist) | SID152153654 | 0.8 | 0.96
UGCG (UDP-glucose ceramide glucosyltransferase) | SID135621197 | 0.09 | 2.14
TIMM21 (translocase of inner mitochondrial membrane 21) | SID135624041 | 1.05 | 0.76
GP9 (glycoprotein IX platelet) | SID152155052 | 0.32 | 1.2
SPANXA2 (SPANX family member A2) | SID135625671 | -0.23 | -0.43
MAP1LC3C (microtubule associated protein 1 light chain 3 gamma) | SID152150957 | 0.74 | 0.52
CLEC17A (C-type lectin domain containing 17A) | SID135625078 | 0.25 | 1.11
OR5AK2 (olfactory receptor family 5 subfamily AK member 2) | SID134329907 | 0.9 | 0.88
PTPRE (protein tyrosine phosphatase receptor type E) | SID134313000 | 0.69 | 0.24
AFG3L2 (AFG3 like matrix AAA peptidase subunit 2) | SID134311209 | 0.59 | 1.48
KLHL9 (kelch like family member 9) | SID152154232 | 0.62 | 1.52
LGI4 (leucine rich repeat LGI family member 4) | SID134320974 | 0.84 | 1.17
BTG2 (BTG anti-proliferation factor 2) | SID134316588 | 0.85 | 1.03
CAPS (calcyphosine) | SID134316140 | 0.36 | 1.43
BEND2 (BEN domain containing 2) | SID152155771 | 0.86 | 0.59
MGST2 (microsomal glutathione S-transferase 2) | SID152152888 | 0.42 | 0.72
XPO1 (exportin 1) | SID152155565 | 0.05 | 1.27
PCBP2 (poly(rC) binding protein 2) | SID135622241 | 0.4 | 1.15
GBF1 | SID135623833 | 0.63 | 0.72
DEFB106A (defensin beta 106A) | SID135623184 | 0.86 | 1.1

The list goes on (2 carried over from the part before).
target gene | PubChem SID | cell gain with vemurafenib | lactate per cell with vemurafenib
GBF1 | SID135623833 | 0.63 | 0.72
DEFB106A (defensin beta 106A) | SID135623184 | 0.86 | 1.1
PSMD14 (proteasome 26S subunit, non-ATPase 14) | SID134311446 | -0.08 | 3.49
ELOVL1 (ELOVL fatty acid elongase 1) | SID134314110 | 0.38 | 1.02
TMSB10 (thymosin beta 10) | SID135623397 | 1.08 | 0.78
LCN1 (lipocalin 1) | SID134313489 | 0.62 | 0.95
TMEM263 (transmembrane protein 263) | SID134319521 | 0.42 | 1.03
FAM24B (family with sequence similarity 24 member B) | SID152153889 | 0.54 | 1.54
SLC3A2 | SID152150967 | 0.44 | 0.7
FCRL5 (Fc receptor like 5) | SID152156450 | 0.85 | 1.01
ITGAX (integrin subunit alpha X) | SID135621488 | 0.41 | 0.97
DOCK10 (dedicator of cytokinesis 10) | SID152147357 | 0.44 | 0.59
GNAT1 (G protein subunit alpha transducin 1) | SID134314535 | 0.96 | 0.98
TUBA3E (tubulin alpha 3e) | SID152152878 | 0.01 | 1.79
REL (REL proto-oncogene, NF-kB subunit) | SID152154336 | 0.44 (active) | 0.46
PACS2 (phosphofurin acidic cluster sorting protein 2) | SID152151528 | 0.58 | 1.11
DDX39B (DExD-box helicase 39B) | SID134310085 | 0.85 | 1.23
C9orf78 (chromosome 9 open reading frame 78) | SID135623944 | 0.82 | 0.76
SLC2A7 | SID152149032 | 0.81 | 0.7
LGR6 (leucine rich repeat containing G protein-coupled receptor 6) | SID135621041 | 0.67 (active) | 0.44
LGR6 (leucine rich repeat containing G protein-coupled receptor 6) | SID135621041 | 0.82 (active) | 0.78
ANKRD37 (ankyrin repeat domain 37) | SID152147735 | 0.2 | 1.12
TRIM61 (tripartite motif containing 61) | SID152156379 | 0.4 | 0.69
DBI (diazepam binding inhibitor, acyl-CoA binding protein) | SID134311820 | 0.1 | 2.04
LRSAM1 (leucine rich repeat and sterile alpha motif containing 1) | SID152155053 | 1.17 | 0.82
OR13C3 (olfactory receptor family 13 subfamily C member 3) | SID152150911 | 0.88 | 0.29
BMP2K (BMP2 inducible kinase) | SID135620930 | 0.41 | 1.17
NAB2 (NGFI-A binding protein 2) | SID152156402 | 0.72 | 0.66
RAB9A (RAB9A, member RAS oncogene family) | SID134310300 | 0.47 | 0.63
LLPH (LLP homolog, long-term synaptic facilitation factor) | SID134322462 | 0.9 | 1.2
OXCT2 (3-oxoacid CoA-transferase 2) | SID134318079 | 0.21 | 1.13
DESI1 (desumoylating isopeptidase 1) | SID152156401 | 0.62 | 0.32
JAG1 (jagged canonical Notch ligand 1) | SID134315424 | 0.39 | 0.76
AGGF1 (angiogenic factor with G-patch and FHA domains 1) | SID134324723 | 0.9 | 0.67
TRIB1 (tribbles pseudokinase 1) | SID56478720 | 0.92 | 1.08
RABEPK (Rab9 effector protein with kelch motifs) | SID134323243 | 0.38 | 1.04
KLF17 (KLF transcription factor 17) | SID152156310 | 1.02 | 0.97
ACKR4 (atypical chemokine receptor 4) | SID134310907 | 0.57 | 0.52
GSTT2B (glutathione S-transferase theta 2B) | SID135625551 | 1.32 | 0.64
NDFIP1 (Nedd4 family interacting protein 1) | SID134317644 | 0.7 | 0.22
KCNJ1 (potassium inwardly rectifying channel subfamily J member 1) | SID135621165 | 0.51 | 0.83
HOXC4 (homeobox C4) | SID152147160 | 0.72 | 0.76
AP4B1 (adaptor related protein complex 4 subunit beta 1) | SID134323893 | 0.13 | 2.38
MAPK14 (mitogen-activated protein kinase 14) | SID135620690 | 1.27 | 0.71
ZBED10P (zinc finger BED-type containing 10, pseudogene) | SID134319634 | 0.28 | 0.82
ARX (aristaless related homeobox) | SID134321202 | 0.62 | 0.89
HECTD1 (HECT domain E3 ubiquitin protein ligase 1) | SID152150861 | 0.23 | 0.64
ANKRD55 (ankyrin repeat domain 55) | SID152152182 | 0.84 | 0.8
MPZL3 (myelin protein zero like 3) | SID134326587 | 0.61 | 1.4
NDUFC2 (NADH:ubiquinone oxidoreductase subunit C2) | SID152153304 | 0.6 | 1.4
GNA12 (G protein subunit alpha 12) | SID134313308 | 0.31 | 0.76
TUBGCP2 (tubulin gamma complex component 2) | SID152152531 | 0.51 | 2.17
ANKRD23 (ankyrin repeat domain 23) | SID152148407 | 0.06 | 0.52
GUCY1B1 (guanylate cyclase 1 soluble subunit beta 1) | SID134311968 | 1.29 | 0.7
RBM43 (RNA binding motif protein 43) | SID134326854 | 0.24 | 1.43
OSBPL7 (oxysterol binding protein like 7) | SID135621727 | 0.68 | 0.46
SQOR (sulfide quinone oxidoreductase) | SID135621539 | 0.45 | 1.07
